Like-named read-outs stand apart in the source and are kept apart here. Results are given in words; binding and its absence hold for the method and conditions named. In cells and extracts the contact can be indirect. Here binding means that the protein was enriched with, or labelled near, the bait; the list need not be complete. Sequences can lack the tags named with a protein.

Chains of the proteins cited; added tags and fusions are not shown.
UniProt Q9JMB7: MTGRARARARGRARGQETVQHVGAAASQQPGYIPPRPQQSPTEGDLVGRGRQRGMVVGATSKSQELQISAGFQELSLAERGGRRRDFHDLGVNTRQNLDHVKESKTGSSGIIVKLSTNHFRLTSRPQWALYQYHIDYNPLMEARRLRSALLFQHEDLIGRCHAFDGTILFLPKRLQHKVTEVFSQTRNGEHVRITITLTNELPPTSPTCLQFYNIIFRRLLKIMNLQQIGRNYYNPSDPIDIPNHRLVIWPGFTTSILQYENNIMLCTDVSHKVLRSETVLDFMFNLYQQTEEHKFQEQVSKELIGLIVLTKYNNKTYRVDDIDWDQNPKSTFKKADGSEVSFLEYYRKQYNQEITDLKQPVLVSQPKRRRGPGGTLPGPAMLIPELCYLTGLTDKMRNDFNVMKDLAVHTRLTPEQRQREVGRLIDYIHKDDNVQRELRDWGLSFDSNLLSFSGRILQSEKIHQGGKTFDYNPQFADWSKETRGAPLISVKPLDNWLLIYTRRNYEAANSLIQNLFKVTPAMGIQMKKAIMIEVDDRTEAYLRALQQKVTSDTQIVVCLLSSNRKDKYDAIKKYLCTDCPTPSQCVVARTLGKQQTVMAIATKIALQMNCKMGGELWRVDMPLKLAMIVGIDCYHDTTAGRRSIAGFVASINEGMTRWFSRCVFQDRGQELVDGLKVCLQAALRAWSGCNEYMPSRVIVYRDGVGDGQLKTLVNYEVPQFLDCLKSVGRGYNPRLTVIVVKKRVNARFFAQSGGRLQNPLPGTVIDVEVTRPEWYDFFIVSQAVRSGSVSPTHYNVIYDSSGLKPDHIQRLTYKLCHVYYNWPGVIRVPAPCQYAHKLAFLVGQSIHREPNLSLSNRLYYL
UniProt Q62093: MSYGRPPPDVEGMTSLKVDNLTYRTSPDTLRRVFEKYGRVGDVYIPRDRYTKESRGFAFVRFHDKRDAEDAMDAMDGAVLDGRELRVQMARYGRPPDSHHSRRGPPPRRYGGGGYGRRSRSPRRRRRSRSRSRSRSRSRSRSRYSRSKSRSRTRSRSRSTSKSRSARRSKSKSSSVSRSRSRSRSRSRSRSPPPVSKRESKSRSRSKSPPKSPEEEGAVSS

In assay [1] the target is T1, FBXO24-HA (FBXO24 with a C-terminal HA epitope tag, from Fbxo24-HA-tagged transgenic mice) (mouse) (UniProt Q9D417).
T1 sequence: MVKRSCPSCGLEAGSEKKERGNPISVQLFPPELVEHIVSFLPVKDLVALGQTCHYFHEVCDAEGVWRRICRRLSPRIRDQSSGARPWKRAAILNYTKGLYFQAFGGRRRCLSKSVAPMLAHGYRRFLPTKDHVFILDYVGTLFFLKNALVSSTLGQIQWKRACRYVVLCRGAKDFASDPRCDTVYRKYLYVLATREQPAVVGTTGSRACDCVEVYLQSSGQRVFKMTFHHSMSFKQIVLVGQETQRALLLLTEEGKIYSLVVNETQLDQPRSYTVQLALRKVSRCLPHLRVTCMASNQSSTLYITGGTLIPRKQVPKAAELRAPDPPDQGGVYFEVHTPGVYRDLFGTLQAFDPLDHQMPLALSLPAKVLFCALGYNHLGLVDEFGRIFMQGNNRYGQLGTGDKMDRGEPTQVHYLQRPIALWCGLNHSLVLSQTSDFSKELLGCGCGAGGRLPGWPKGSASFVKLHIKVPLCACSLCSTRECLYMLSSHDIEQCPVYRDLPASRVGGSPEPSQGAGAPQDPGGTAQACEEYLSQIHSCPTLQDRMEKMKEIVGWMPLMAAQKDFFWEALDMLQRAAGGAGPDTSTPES
The experiment in a line: affinity purification with mass spectrometry; IP-MS with the HA antibody from testes (FBXO24-HA as bait).

Assay [2] concerns the target T1, FBXO24-HA (FBXO24 with a C-terminal HA epitope tag, from Fbxo24-HA-tagged transgenic mice) (mouse). The description is as above. The source holds these as a separate data set.

For MIWI (from UniProt Q9JMB7 1-862), the binding result in assay [1] is given as “binds”.
The same measure, in the same setting: in the case of SRSF2 (from UniProt Q62093 1-221) it was “binds”.

B1: SRSF3 (protein, UniProt P84104 1-164)
chain: MHRDSCPLDCKVYVGNLGNNGNKTELERAFGYYGPLRSVWVARNPPGFAFVEFEDPRDAADAVRELDGRTLCGCRVRVELSNGEKRSRNRGPPPSWGRRPRDDYRRRSPPPRRRSPRRRSFSRSRSRSLSRDRRRERSLSRERNHKPSRSFSRSRSRSRSNERK
In the case of B1, the binding entry in assay [2] is on record as “binds”.

The values are drawn from article PMC10932545.
